Data reported in PMC7819943, “Rice protein-binding microarrays: a tool to detect cis-acting elements near promoter regions in rice”.
This is one part of the list.

Protein sequences, listed by entry. Tags and fused reporters are not part of them.
UniProt Q0JBA9, entry or part of it: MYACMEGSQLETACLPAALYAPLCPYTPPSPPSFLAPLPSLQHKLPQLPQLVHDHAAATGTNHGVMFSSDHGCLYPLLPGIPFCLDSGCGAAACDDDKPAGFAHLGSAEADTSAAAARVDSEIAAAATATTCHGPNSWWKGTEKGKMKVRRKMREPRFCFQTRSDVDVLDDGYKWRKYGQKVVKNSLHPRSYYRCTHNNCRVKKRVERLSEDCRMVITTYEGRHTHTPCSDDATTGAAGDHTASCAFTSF

Molecular target: OsWRKY34 (Oryza sativa, UniProt Q0JBA9 1-250)
Assay: protein-binding microarray (RPBM); PBS, 2% BSA, 51.3 ng/ul salmon testes DNA, 50 uM zinc acetate, 200 nM TF, 25 C, 1 h; high values mean tight binding
Conditions: protein: recombinant; tags: N-terminal polyhistidine and DsRed monomer fusion (pET32a); label: CyDye5-dUTP incorporated in the synthesized complementary strand; 3' TTTTT single-stranded linker to array surface; dsDNA, one strand shown
How it was run: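 Binding signal is defined as the fluorescence intensity of each feature in arbitrary units, read on an Axon 4000B scanner. Transcription factors with N-terminal polyhistidine and DsRed fusions came from E. coli BL21-CodonPlus and were purified on Ni–NTA. They were incubated at 200 nM for 1 h at 25 °C on a custom Agilent array that had been made double-stranded with Cy5-dUTP, with 50 µM zinc acetate present, and the array was washed.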

Compared with “CCGTCACCTTTCTCTGCTCGGCCTGCAGCCCACAAGTGGACGGAGTCACCTAGTGCAG”, “GCCCATAACTAGGCCTGAGCCCATGTAGCCTTCCGTGAACCGGAGTCACCTAGTGCAG” is higher in binding signal: 9510 fluorescence intensity (a.u.) for the first, 9840 fluorescence intensity (a.u.) for the second.

Going from “GCTTCCTTCTTCTCCCGCGCCCGGCGCCCGCACCGAACCACGGAGTCACCTAGTGCAG” to “ATTTTTACCCTTCTCCTGTGTTTTTGTTGCTGTGATTCAACGGAGTCACCTAGTGCAG”, the binding signal falls from 8580 fluorescence intensity (a.u.) to 8570 fluorescence intensity (a.u.).

Going from “ATGGCCGCAACTTGTGCAGATTTTTGTGTGTGAAGAAGAACGGAGTCACCTAGTGCAG” to “CATAAAACACTATAAATCAAGCACTACCTTCACCATTTTTCGGAGTCACCTAGTGCAG”, the binding signal rises from 8090 fluorescence intensity (a.u.) to 8740 fluorescence intensity (a.u.).

First: ACTATTGACTTTTTTTCTATGTTAGACCATTCATTTTATTCGGAGTCACCTAGTGCAG
Second: CGCCCGCGCCATCTTGCGCCGCTACTCACCTCTTACCCTACGGAGTCACCTAGTGCAG
The binding signal of the first is higher: 12300 fluorescence intensity (a.u.) for the first, 9320 fluorescence intensity (a.u.) for the second.

Going from “CTTGCCTTTTCTGACTCGCTCTCTCTCTCTCTCTCTATATCGGAGTCACCTAGTGCAG” to “CGTTTGTTTTCCATCCCATTTCTCGTTCATCCTCTCCCTGCGGAGTCACCTAGTGCAG”, the binding signal rises from 10200 fluorescence intensity (a.u.) to 12100 fluorescence intensity (a.u.).

First: ATGATTGTACCACACTGCCTGAGTCTAACTGTGTCGTTTCCGGAGTCACCTAGTGCAG
Second: TGTCGGTGCAATCTGGGCAATTTCAGTACTTTGCGAGCATCGGAGTCACCTAGTGCAG
The binding signal of the first is higher: 10200 fluorescence intensity (a.u.) for the first, 9080 fluorescence intensity (a.u.) for the second.

First: GACCGCCAATGATTCTCCTGCGATATCTACTCCTGCATGTCGGAGTCACCTAGTGCAG
Second: TAATTAAAACCCTCGTCTAACCCACCGCTATCCGCATTTACGGAGTCACCTAGTGCAG
The binding signal of the first is higher: 10000 fluorescence intensity (a.u.) for the first, 8290 fluorescence intensity (a.u.) for the second.

First: CCCTCGTCATCCGTCCCTTCCCTCCATTCAAACGCGAAAACGGAGTCACCTAGTGCAG
Second: TGAGATAGATGCTCCCGCCCTGCCGTCTTCCTCGTCTCCGCGGAGTCACCTAGTGCAG
The binding signal of the first is higher: 8160 fluorescence intensity (a.u.) for the first, 8150 fluorescence intensity (a.u.) for the second.

Compared with “GTGGTGGCGGTGGAGGTGGAGGTGGAGGCGCCGTGGTGCGCGGAGTCACCTAGTGCAG”, “CTATGGCTACCTTTTCCCATTATTTTTTTCACATAGTGTTCGGAGTCACCTAGTGCAG” is lower in binding signal: 12600 fluorescence intensity (a.u.) for the first, 10200 fluorescence intensity (a.u.) for the second.

Going from “ACGCCGTTGACTTTTTAAAATATGTTTGACCGTTTATCTTCGGAGTCACCTAGTGCAG” to “TGAGACTTGAGAATTGGATTTATCAGTTTGAGGGGTTTTTCGGAGTCACCTAGTGCAG”, the binding signal falls from 45700 fluorescence intensity (a.u.) to 9720 fluorescence intensity (a.u.).

First: GAGGGGAGGGAGAGGTCGGAGATGGTTACCGGTGGGGAAGCGGAGTCACCTAGTGCAG
Second: AGCTGCTCTTGCTCTTCCTGCTCCGCCGTCACCTCCACCACGGAGTCACCTAGTGCAG
The binding signal of the first is higher: 12300 fluorescence intensity (a.u.) for the first, 9260 fluorescence intensity (a.u.) for the second.

First: TTGCTTATTCCTCTTGTAATCTGTGGTTTTCTCCATATAACGGAGTCACCTAGTGCAG
Second: GTCCTCGCCGTGTCGTTTCCCCAACCGCCGCGCCGCTTCGCGGAGTCACCTAGTGCAG
The binding signal of the first is higher: 11200 fluorescence intensity (a.u.) for the first, 8280 fluorescence intensity (a.u.) for the second.

First: GATTGGTGGGAATTATATATGTGGTCCAATTGGCTCTTTTCGGAGTCACCTAGTGCAG
Second: GTGGGAGCAAGTTTGGGGCACTTCTTGGAGGCTAGATTGTCGGAGTCACCTAGTGCAG
The binding signal of the first is higher: 10100 fluorescence intensity (a.u.) for the first, 8500 fluorescence intensity (a.u.) for the second.

Going from “TAACATTGATTGTTATGTCACTTGTCTGTGGATCAACTCTCGGAGTCACCTAGTGCAG” to “AACATTCTTCTCCTTTTCTTCTTCTTCCTCCTCTCGTCGACGGAGTCACCTAGTGCAG”, the binding signal rises from 9060 fluorescence intensity (a.u.) to 9210 fluorescence intensity (a.u.).

Compared with “CTCCGCCTCATTATAAGTACAATCATAGGTTTTCACGTCACGGAGTCACCTAGTGCAG”, “TGTCAGTTACTTCCAAGTTGCTGTCCTTTAGGTCTCTTCTCGGAGTCACCTAGTGCAG” is lower in binding signal: 10200 fluorescence intensity (a.u.) for the first, 8140 fluorescence intensity (a.u.) for the second.

Compared with “GACCCACGACGCCAACTTCGCCACCAGGCCCAGGCTCCTCCGGAGTCACCTAGTGCAG”, “AGAGTACTAATTGTTCTATCAATCACTTTTCATTCAAATTCGGAGTCACCTAGTGCAG” is lower in binding signal: 8820 fluorescence intensity (a.u.) for the first, 8040 fluorescence intensity (a.u.) for the second.

First: CTGTTGGTCGTCTCCTCTCTATGTCAGCCGCACCAAGGTGCGGAGTCACCTAGTGCAG
Second: GATTGTTGCATGTGTATACCTTATAGTGAAAAGTGTTTTCCGGAGTCACCTAGTGCAG
The binding signal of the first is lower: 8050 fluorescence intensity (a.u.) for the first, 9300 fluorescence intensity (a.u.) for the second.

Going from “TGCTGTCCTTCCCACCATTGCTCTGCAACCTGCCGTCACCCGGAGTCACCTAGTGCAG” to “TTGTAGTGTGCCCGATCTGCGAGTATCCTGGTATTGTGTACGGAGTCACCTAGTGCAG”, the binding signal rises from 8330 fluorescence intensity (a.u.) to 9820 fluorescence intensity (a.u.).

First: CCCCGCGTCTCTTTTCCGCACCCATCTGCTGCAGCTGCGCCGGAGTCACCTAGTGCAG
Second: TCGATTTTTTTTGTGTTTTTTTTTGCGTGCGGGCGGTATTCGGAGTCACCTAGTGCAG
The binding signal of the first is lower: 8780 fluorescence intensity (a.u.) for the first, 10900 fluorescence intensity (a.u.) for the second.

Compared with “ATTCAATTCTATCATATCCTTATCCATCATGTCGTTCATTCGGAGTCACCTAGTGCAG”, “GGTTGACTTTACTTCTTTGGGCCTCTCAGATATGTTCTTTCGGAGTCACCTAGTGCAG” is higher in binding signal: 9200 fluorescence intensity (a.u.) for the first, 11400 fluorescence intensity (a.u.) for the second.

Compared with “GATGGTTGGGGATGAGCTTGGTAGCCATATGGCTATCTCGCGGAGTCACCTAGTGCAG”, “TAATGTTCCACAGCTAATTACGTATTTTTTTGAGTGTCCTCGGAGTCACCTAGTGCAG” is higher in binding signal: 8110 fluorescence intensity (a.u.) for the first, 8640 fluorescence intensity (a.u.) for the second.
